# Laboratory results published in PMC3797800, “The Coordination of Cell Growth during Fission Yeast Mating Requires Ras1-GTP Hydrolysis” (PLoS ONE, 2013).
# These are yes or no findings as the source states them, for the method shown. Binding seen in cells or lysates may run through a third protein. Some results given as binding are weak or reduced against the parent protein; the word gives no strength. Tags and fused reporters may be left off the sequences shown.
# T1: CFP-Ras1^Q66L (S. pombe) (UniProt P08647)
# T1 sequence: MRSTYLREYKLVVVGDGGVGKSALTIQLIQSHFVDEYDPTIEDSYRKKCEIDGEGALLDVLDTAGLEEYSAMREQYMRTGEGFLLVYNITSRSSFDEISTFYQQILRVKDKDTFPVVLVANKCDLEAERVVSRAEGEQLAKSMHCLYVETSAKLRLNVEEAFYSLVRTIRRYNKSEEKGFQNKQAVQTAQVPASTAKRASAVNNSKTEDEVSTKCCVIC
# T2: CFP-Ras1^G17V (S. pombe) (UniProt P08647)
# T2 sequence: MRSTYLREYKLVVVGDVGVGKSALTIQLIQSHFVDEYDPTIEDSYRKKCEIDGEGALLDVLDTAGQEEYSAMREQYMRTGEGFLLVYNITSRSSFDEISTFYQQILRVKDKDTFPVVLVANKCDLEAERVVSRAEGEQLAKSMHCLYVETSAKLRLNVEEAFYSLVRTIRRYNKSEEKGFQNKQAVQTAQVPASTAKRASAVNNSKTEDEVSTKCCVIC
# T3: CFP-Ras1 (S. pombe, UniProt P08647 1-219)
# T3 construct: Ras1, small GTPase of Schizosaccharomyces pombe; ORF amplified from the start codon to the stop codon and cloned behind CFP; also called Ras1-GTP; source: S. pombe (strain JY1618, Δras1Δgap1), expressed from pREP4x (nmt1 promoter), in living cells; not shown: CFP, N-terminal, kept
# T3 sequence (looked up): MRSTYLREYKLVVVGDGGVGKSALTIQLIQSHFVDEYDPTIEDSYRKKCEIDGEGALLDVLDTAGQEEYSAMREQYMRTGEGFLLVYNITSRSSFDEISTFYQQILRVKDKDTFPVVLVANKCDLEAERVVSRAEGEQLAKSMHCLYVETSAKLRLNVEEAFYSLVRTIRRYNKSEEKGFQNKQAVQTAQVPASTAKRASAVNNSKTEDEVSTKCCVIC
# B1: Gap1-YFP (natural protein, S. pombe, UniProt P33277 1-766, looked up)
# chain: MTKRHSGTLSSSVLPQTNRLSLLRNRESTSVLYTIDLDMESDVEDAFFHLDRELHDLKQQISSQSKQNFVLERDVRYLDSKIALLIQNRMAQEEQHEFAKRLNDNYNAVKGSFPDDRKLQLYGALFFLLQSEPAYIASLVRRVKLFNMDALLQIVMFNIYGNQYESREEHLLLSLFQMVLTTEFEATSDVLSLLRANTPVSRMLTTYTRRGPGQAYLRSILYQCINDVAIHPDLQLDIHPLSVYRYLVNTGQLSPSEDDNLLTNEEVSEFPAVKNAIQERSAQLLLLTKRFLDAVLNSIDEIPYGIRWVCKLIRNLTNRLFPSISDSTICSLIGGFFFLRFVNPAIISPQTSMLLDSCPSDNVRKTLATIAKIIQSVANGTSSTKTHLDVSFQPMLKEYEEKVHNLLRKLGNVGDFFEALELDQYIALSKKSLALEMTVNEIYLTHEIILENLDNLYDPDSHVHLILQELGEPCKSVPQEDNCLVTLPLYNRWDSSIPDLKQNLKVTREDILYVDAKTLFIQLLRLLPSGHPATRVPLDLPLIADSVSSLKSMSLMKKGIRAIELLDELSTLRLVDKENRYEPLTSEVEKEFIDLDALYERIRAERDALQDVHRAICDHNEYLQTQLQIYGSYLNNARSQIKPSHSDSKGFSRGVGVVGIKPKNIKSSNTVKLSSQQLKKESVLLNCTIPEFNVSNTYFTFSSPSTDNFVIAVYQRGHSKVLVEVCICLDDVLQRRYASNPVVDLGFLTFEANKLYHLFEQLFLRK
# notes: ORF amplified from the start codon, stop codon removed, cloned in front of YFP; source: S. pombe, expressed from pREP3x (nmt1 promoter), in living cells; not shown: YFP, C-terminal, kept
# What was measured:
# CFP-Ras1^Q66L (S. pombe) = target: T1, CFP-Ras1^Q66L (S. pombe); assay: FRET or BRET; FACS-based FRET (405 nm excitation, 585/42 nm emission), living S. pombe cells co-expressing CFP and YFP fusions; percent of cells with a FRET signal over 0-8 h after 10 μM pheromone
# CFP-Ras1^G17V (S. pombe) = target: T2, CFP-Ras1^G17V (S. pombe); assay: as above
# CFP-Ras1 = target: T3, CFP-Ras1; assay: FRET or BRET; sensitized emission on a confocal microscope, living S. pombe cells co-expressing a CFP donor and a YFP acceptor from nmt1 plasmids; single cells 0, 4 and 8 h after 10 μM pheromone; apparent FRET efficiency
binder,measurement,setting,value
B1,binding,CFP-Ras1^Q66L (S. pombe),binds
same,binding,CFP-Ras1^G17V (S. pombe),no binding
same,binding,CFP-Ras1,binds
